Here are results for two substances from paper PMC12948197.

Chains of the proteins cited; added tags and fusions are not shown. Residues count along the entry.
UniProt P30101, residues 25-505: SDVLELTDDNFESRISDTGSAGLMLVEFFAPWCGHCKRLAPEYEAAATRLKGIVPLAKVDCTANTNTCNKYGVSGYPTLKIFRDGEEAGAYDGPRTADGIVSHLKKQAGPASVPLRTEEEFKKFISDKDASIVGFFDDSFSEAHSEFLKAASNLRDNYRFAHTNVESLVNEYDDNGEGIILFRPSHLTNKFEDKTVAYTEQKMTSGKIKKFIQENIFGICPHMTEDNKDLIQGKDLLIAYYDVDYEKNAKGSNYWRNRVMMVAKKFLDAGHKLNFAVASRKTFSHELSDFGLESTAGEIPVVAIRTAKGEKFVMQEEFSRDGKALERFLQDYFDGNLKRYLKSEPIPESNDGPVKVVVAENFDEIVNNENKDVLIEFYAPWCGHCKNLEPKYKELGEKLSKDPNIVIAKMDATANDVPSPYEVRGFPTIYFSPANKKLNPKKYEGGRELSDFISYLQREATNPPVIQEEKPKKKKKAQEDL
UniProt P40763: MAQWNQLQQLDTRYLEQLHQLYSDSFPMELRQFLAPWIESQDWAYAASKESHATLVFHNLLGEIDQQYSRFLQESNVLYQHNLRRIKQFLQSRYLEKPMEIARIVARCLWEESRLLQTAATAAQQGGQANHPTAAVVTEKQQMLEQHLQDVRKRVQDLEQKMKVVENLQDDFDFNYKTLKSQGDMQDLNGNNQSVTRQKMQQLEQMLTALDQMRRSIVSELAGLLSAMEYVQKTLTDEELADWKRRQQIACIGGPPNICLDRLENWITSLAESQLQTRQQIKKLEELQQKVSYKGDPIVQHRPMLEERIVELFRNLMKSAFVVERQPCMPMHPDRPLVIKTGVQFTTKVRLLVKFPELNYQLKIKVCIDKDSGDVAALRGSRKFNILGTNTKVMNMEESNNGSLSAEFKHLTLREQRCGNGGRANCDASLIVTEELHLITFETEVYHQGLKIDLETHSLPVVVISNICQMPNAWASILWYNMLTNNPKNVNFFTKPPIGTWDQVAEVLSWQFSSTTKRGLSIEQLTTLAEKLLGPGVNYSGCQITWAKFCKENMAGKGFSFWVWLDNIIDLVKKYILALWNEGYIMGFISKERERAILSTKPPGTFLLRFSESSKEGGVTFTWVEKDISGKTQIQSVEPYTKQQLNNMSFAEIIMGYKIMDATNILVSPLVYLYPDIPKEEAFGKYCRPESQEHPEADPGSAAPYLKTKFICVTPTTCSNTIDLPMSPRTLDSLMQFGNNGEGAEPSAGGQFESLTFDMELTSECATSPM
UniProt Q96PU5, residues 640-974: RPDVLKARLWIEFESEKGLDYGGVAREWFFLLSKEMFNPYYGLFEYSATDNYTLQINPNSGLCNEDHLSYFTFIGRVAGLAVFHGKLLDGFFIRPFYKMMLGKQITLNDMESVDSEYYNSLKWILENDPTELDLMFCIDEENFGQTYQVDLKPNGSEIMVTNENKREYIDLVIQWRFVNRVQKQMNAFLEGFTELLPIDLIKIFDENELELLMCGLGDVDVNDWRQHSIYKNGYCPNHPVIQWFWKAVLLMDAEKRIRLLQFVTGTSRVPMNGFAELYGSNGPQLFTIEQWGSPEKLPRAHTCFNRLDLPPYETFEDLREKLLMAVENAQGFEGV

These are yes or no findings as the source states them, for the method shown. In cells and extracts the contact can be indirect. Some binding calls cover weakened binding; strength is not graded here.

In assay [1] the target is PDIA3 expressed from a plasmid in 293T cells (UniProt P30101). Kind of assay: co-IP; 293T cells transfected with the indicated plasmids, lysed in RIPA buffer with benzonase nuclease; immunoprecipitation of Flag-tagged proteins, washed with IP2 buffer, eluted with 3x Flag peptide, immunoblot.
For assay [2], the target named is STAT3 (signal transducer and activator of transcription 3) (human (endogenous in LN229)) (UniProt P40763). Kind of assay: proximity ligation; fixed and permeabilised LN229 cells, primary antibodies against the two endogenous proteins, MINUS and PLUS PLA probes, confocal microscopy; siRNA-depleted cells as controls.

As to “HECT domain of NEDD4L (truncated NEDD4L) (from UniProt Q96PU5 640-974) (domain or fragment)”, the binding result in assay [1] was “binds”.

With “protein disulfide isomerase A3 (PDIA3) (from UniProt P30101 25-505)”, the binding entry in assay [2] is “binds”.
